Data as given in article PMC8990465.

Target: SIRT3 (NAD-dependent protein deacetylase sirtuin-3, mitochondrial) (human (endogenous in Caki-1))
Experiment: co-IP; SIRT3 antibody overnight at 4 °C, then protein A/G magnetic beads 2 h at room temperature; mitochondria of CLDN10 overexpression and control Caki-1 cells; western blot for ATP5O

B1: ATP5O protein (ATP synthase subunit O, mitochondrial) (protein, UniProt P48047 24-213)
chain: FAKLVRPPVQVYGIEGRYATALYSAASKQNKLEQVEKELLRVAQILKEPKVAASVLNPYVKRSIKVKSLNDITAKERFSPLTTNLINLLAENGRLSNTQGVVSAFSTMMSVHRGEVPCTVTSASPLEEATLSELKTVLKSFLSQGQVLKLEAKTDPSILGGMIVRIGEKYVDMSVKTKIQKLGRAMREIV
binding: binds

These are yes or no findings as the source states them, for the method shown. Binding seen in cells or lysates may run through a third protein. Binding calls can cover weak binding; strength is not graded here.
